# Primary screen of a compound library

Protein sequences, listed by entry. Tags and fused reporters are not part of them. Residues count along the entry.
UniProt P9WFT3, whole entry: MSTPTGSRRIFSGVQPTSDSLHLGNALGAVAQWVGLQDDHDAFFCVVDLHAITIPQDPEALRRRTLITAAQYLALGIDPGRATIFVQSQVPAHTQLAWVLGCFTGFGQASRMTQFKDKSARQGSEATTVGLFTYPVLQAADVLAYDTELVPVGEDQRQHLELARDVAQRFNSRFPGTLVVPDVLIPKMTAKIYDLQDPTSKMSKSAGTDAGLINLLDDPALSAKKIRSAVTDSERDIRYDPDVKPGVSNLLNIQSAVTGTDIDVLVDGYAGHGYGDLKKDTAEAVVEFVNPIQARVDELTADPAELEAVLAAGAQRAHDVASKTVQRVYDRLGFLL
UniProt I6X8D2, whole entry: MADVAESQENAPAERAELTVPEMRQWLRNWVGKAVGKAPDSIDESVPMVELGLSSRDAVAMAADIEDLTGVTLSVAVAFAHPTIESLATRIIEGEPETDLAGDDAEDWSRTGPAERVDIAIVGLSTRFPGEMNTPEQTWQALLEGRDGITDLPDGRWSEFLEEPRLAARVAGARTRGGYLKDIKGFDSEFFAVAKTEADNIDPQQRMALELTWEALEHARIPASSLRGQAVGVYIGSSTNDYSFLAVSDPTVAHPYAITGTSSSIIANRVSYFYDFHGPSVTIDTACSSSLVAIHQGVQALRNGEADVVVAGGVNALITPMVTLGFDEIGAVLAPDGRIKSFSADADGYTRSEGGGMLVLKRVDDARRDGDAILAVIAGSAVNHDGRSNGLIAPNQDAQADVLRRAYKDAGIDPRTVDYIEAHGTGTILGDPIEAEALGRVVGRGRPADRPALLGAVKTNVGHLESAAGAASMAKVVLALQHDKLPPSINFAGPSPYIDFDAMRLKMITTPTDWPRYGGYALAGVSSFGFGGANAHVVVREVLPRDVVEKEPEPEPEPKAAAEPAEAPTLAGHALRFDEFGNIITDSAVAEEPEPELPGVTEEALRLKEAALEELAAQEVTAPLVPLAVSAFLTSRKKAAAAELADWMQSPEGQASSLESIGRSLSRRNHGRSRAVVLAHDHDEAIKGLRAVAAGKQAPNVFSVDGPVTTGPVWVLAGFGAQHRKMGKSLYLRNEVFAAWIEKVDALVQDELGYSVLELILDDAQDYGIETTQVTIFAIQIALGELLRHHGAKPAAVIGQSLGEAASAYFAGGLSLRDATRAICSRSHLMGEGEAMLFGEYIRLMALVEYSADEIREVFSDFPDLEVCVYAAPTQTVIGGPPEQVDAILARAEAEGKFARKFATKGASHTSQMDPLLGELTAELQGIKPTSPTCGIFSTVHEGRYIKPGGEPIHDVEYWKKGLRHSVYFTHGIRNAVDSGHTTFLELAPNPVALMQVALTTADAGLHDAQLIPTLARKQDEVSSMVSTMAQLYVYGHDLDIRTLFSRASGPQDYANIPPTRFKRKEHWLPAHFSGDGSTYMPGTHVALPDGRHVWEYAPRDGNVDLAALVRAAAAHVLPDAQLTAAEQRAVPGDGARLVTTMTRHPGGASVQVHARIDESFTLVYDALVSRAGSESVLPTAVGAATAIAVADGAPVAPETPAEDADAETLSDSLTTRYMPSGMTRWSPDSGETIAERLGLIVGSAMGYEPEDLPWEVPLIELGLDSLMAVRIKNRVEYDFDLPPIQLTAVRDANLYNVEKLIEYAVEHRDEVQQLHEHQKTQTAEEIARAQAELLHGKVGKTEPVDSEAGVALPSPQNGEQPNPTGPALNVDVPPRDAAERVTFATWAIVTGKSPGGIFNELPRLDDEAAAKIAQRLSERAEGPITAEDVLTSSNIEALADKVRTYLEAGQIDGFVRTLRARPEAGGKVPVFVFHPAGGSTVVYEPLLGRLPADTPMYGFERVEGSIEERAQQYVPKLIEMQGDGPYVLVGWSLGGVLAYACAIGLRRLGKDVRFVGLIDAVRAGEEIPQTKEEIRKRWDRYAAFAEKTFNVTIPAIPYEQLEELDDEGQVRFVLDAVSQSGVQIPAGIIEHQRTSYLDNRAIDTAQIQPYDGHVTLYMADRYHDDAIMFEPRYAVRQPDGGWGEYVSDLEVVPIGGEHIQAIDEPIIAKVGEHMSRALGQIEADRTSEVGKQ
UniProt Q4DA54, 1-478: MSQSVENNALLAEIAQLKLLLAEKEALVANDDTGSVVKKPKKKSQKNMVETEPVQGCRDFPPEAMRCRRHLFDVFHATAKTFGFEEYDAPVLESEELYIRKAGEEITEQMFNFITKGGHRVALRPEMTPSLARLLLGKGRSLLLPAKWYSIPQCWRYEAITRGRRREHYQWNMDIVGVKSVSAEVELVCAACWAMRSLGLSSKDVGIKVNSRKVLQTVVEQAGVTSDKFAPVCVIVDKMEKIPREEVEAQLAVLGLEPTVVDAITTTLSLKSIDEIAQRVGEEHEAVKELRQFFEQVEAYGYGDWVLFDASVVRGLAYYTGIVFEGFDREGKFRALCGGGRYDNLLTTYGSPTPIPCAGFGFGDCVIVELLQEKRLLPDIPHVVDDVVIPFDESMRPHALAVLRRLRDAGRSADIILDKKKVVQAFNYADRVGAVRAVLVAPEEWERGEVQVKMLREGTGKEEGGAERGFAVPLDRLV

Data taken from ChEMBL document CHEMBL3988442, “University of Dundee, Small-Polar-MMV Screening Library” (2021).

Results are given as percent effect. The record does not define 0% and 100%; most values in the screen are far below 50% and negative numbers occur (in some assays of this library far below -100). The compounds are a random part of those screened. Two or more numbers in one place are separate tests of the same structure; such repeats can differ widely. A dash means the value is not listed here; it may have been measured.

MtTrpRS: 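Tryptophan-tRNA ligase, Mycobacterium tuberculosis (UniProt P9WFT3). Enzyme assay of tryptophanyl-tRNA synthetase; the read-out is not stated. Concentration: 10 µM. Direction is not recorded; retested compounds ran higher, which suggests that high means inhibition. Of about 65,000 compounds tested this way, about 64 (0.098%) reached 50% or more in at least one test.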
Leishmania in macrophages: 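Cell assay of Leishmania donovani living inside macrophages; the read-out is not stated. Tested at 30 µM. The record gives no direction; compounds that gave an IC50 in retests scored well above the rest, so higher reads as stronger inhibition. Of about 69,000 compounds tested this way, about 1,000 (1.5%) reached 50% or more in at least one test.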
Pks13 thioesterase: 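Enzyme assay of the thioesterase domain of polyketide synthase 13; the read-out is not stated. Target: Polyketide synthase Pks13, Mycobacterium tuberculosis (UniProt I6X8D2). Concentration: 30 µM. Higher reads as stronger inhibition (inferred from which compounds were picked for retests). Of about 67,000 compounds tested this way, about 300 (0.46%) reached 50% or more in at least one test.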
TcHisRS: 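Histidine-tRNA ligase, Trypanosoma cruzi CL Brener (UniProt Q4DA54). Enzyme assay of histidyl-tRNA synthetase; the read-out is not stated. Compounds at 30 µM. Higher reads as stronger inhibition (inferred: compounds with an IC50 in retests scored well above the rest). About 69,000 compounds were tested under these conditions; 0.045% (about 31) showed 50% or more at least once.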

| # | Compound | MtTrpRS | Leishmania in macrophages | Pks13 thioesterase | TcHisRS |
|---|---|---|---|---|---|
| 1 | `O=C(NCc1cc[nH]n1)NCC(c1ccccc1)N1CCOCC1` (centres unmarked) | 7.696 | 26.83 | -13.64 | -0.5882 |
| 2 | `Cc1cc(C(=O)N(C)C)nc(C2(C)CCCN2c2ccccc2)n1` (centres unmarked) | -6.773 | 32.05 | 15.1 | 9.848 |
| 3 | `CCC(CC)Cn1ncc(N2CCOCC2)cc1=O` | -9.55 | 16.16 | -23.43 | 8.247 |
| 4 | `O=C(NCC1CCCCO1)c1ccc(-c2cccs2)[nH]c1=O` (centres unmarked) | -0.08842 | 19.47 | -13.44 | -8.671 |
| 5 | `COc1c(CNCC(O)c2cccc(F)c2)c(C)nn1C` (centres unmarked) | -3.762 | -4.485 | -5.297 | 6.122 |
| 6 | `COCC1COCCC12CCN(C(=O)CCOc1ccccc1)CC2` (centres unmarked) | -2.064 | 22.74 | -15.12 | 1.604 |
| 7 | `Cc1cccc(CN2CCc3cc(C(=O)O)c(N(C)C)nc3CC2)n1.O=C(O)C(F)(F)F.O=C(O)C(F)(F)F` | - | 17.35 | - | - |
| 8 | `N#Cc1ccc(N2CCCC3(CCC(=O)N3CC3CC3)CC2)nc1.O=C(O)C(F)(F)F` (centres unmarked) | - | 35.07 | - | - |
| 9 | `CCc1nnc2ccc(NCC3(O)CCOCC3)nn12` | 0.892 | 19.16 | -8.427 | 1.587 |
| 10 | `CN(Cc1ccc(-n2cccn2)cc1)c1cc(N)nc(N)n1` | 3.222 | 38.05 | - | 1.676 |
| 11 | `CCC(O)CN1CCN(C(=O)c2ccc(N(C)C)nn2)CC1` (centres unmarked) | -7.268 | -6.862 | 5.362 | 2.882 |
| 12 | `Cc1cnn(CC2CN(CCN3CCCC3=O)CCO2)c1` (centres unmarked) | 0.8382 | 0.6976 | -6.003 | -1.695 |
| 13 | `c1cnnc(NCC2CN(CCN3CCCCC3)CCO2)c1` (centres unmarked) | 0.2398 | 26.04 | -5.176 | -0.7634 |
| 14 | `CN(C)C(=O)NCc1nnn2c1CN(CC1CCOCC1)CCC2` | 15.41 | - | 17.42 | 5.464 |
| 15 | `O=C(O)C(F)(F)F.[H][C@@]12CCN(C3CCOCC3)C[C@]1([H])O[C@@H](C(=O)N(C)C)C2` | - | -1.525 | - | - |
| 16 | `CCn1cnnc1CNC(=O)N1CCN(c2ccc(OC)cc2)CC1` | 0.09737 | 18.32 | -2.2 | 6.322 |
| 17 | `CCn1ccc(C(=O)NCCCN2CCOCC2)n1` | -2.237 | 15.58 | -13.22 | 1.674 |
| 18 | `O=C(O)c1cc(S(=O)(=O)Nc2cccc3c2OCCO3)c(Cl)cc1F` | 7.969 | -40.47 | -9.504 | 5.521 |
| 19 | `O=C(CN1CCCC1c1nc(Cc2ccc(F)cc2)no1)NC1CC1` (centres unmarked) | 5.841 | -10.49 | -12.5 | -1.478 |
| 20 | `O=C(O)C(F)(F)F.[H][C@@]12CCN(Cc3cccs3)C[C@]1([H])O[C@H](C(=O)NC1CCC1)C2` | - | 45.48 | - | - |
| 21 | `CC1(C)OC(=O)N(CC(=O)N2CCC(c3ccccc3Cl)C2)C1=O` (centres unmarked) | 1.665 | 16.86 | -13.51 | 7.035 |
| 22 | `COC[C@@]12CCC[C@@H]1CN(C(=O)CN(C)C)C2` | - | - | -10.28 | 0.5587 |
| 23 | `CN(Cc1n[nH]c2c1CCCC2)c1nc(C2CC2)nc2c1CCNCC2` | -0.161 | 41.18 | -13.2 | 0.8 |
| 24 | `[H][C@]12CCC(=O)N(CC)[C@@]1(C)CCCCN2C(=O)CCn1nccc1C` | - | 15.96 | - | - |
| 25 | `Cc1noc(C2CCC3(CCN(C(=O)C4=CCCCC4)CC3)O2)n1` (centres unmarked) | 5.197 | -1.762 | -18.14 | 4.237 |
| 26 | `[H][C@@]12COC[C@@H](CC(=O)NCCOC)[C@]1([H])CN(Cc1cccnc1)C2` | - | -10.98 | - | - |
| 27 | `[H][C@]12CC[C@]([H])(CN(C(=O)N(C)C)C1)N(C(=O)Cn1ccnc1CC)C2` | - | 29.36 | - | - |
| 28 | `O=C(NCC(Cc1cccc(F)c1)N1CCCC1=O)c1cnccn1` (centres unmarked) | -1.497 | 21.91 | -16.45 | 4.132 |
| 29 | `CNC(=O)c1cccnc1NCc1ccc(Cn2cccn2)cc1` | -15.87 | -8.988 | -4.539 | 8.642 |
| 30 | `COCCO[C@H]1CCN(C(=O)c2ccc[nH]2)[C@H]1Cc1ccncc1` | -2.819 | 17.48 | -30.37 | 4.918 |
| 31 | `CCS(=O)(=O)N1C[C@@H](O)[C@H](N2CCc3ccccc3C2)C1` | -6.512 | -19.4 | 10.47 | 2.326 |
| 32 | `CN(CC(=O)N(C)C1CCCCC1)C1CCc2ccccc21` (centres unmarked) | -8.019 | 8.503 | -5.06 | 1.901 |
| 33 | `Cc1ccc(S(N)(=O)=O)cc1C(=O)N1C[C@@H](CN(C)C)[C@@H](CO)C1` | -1.786 | 8.769 | -25.08 | 5.155 |
| 34 | `Cc1nc2cc(=O)[nH]n2c(C)c1CC(=O)Nc1cn[nH]c1` | 0.5727 | 4.126 | -17.36 | 8.929 |
| 35 | `Cc1cc(C#N)ccc1S(=O)(=O)NCc1cnc(N(C)C)n1C` | -0.6353 | 16.98 | -8.918 | 12.07 |
| 36 | `COCCOc1cc(C)ccc1NC(=O)N(C)Cc1cnn(C)c1` | -3.107 | 12.02 | -10.21 | 1.453 |
| 37 | `Cc1noc(C)c1CN1CCn2cc(CN3CCCC3)nc2C1.O=C(O)C(F)(F)F.O=C(O)C(F)(F)F` | - | 12.2 | - | - |
| 38 | `O=C(NCc1ccccn1)[C@@H]1COC[C@H]2CN(C3CCC3)C[C@H]21` | -4.691 | - | -10.7 | 11.76 |
| 39 | `Cc1cccc(N2CCC3(CCCN3Cc3cnn(C)c3C)CC2)n1` | -3.42 | 23.47 | 2.309 | 3.784 |
| 40 | `Cc1c(C(C)N)cnn1-c1cccc2ccccc12` (centres unmarked) | -1.971 | 22.69 | -22.42 | 3.017 |
| 41 | `CN(C)CCN1C(=O)C[C@@H]2[C@@H]1CCN2S(=O)(=O)c1ccccc1` | -6.386 | - | -32.88 | 5.825 |
| 42 | `Cn1nc(Cn2ccnc2)c2c1CN(c1ncccn1)C2.O=C(O)C(F)(F)F` | - | 3.162 & -42.74 | - | - |
| 43 | `CCN(Cc1cccs1)C(=O)c1ccc(=O)n(C)c1` | -1.348 | -5.731 | -15.97 | 6.897 |
| 44 | `COc1ccc(CCN2C(=O)O[C@@H]3CN(C4CCOCC4)C[C@@H]32)cc1` | -4.955 | - | -3.699 | 3.509 |
| 45 | `Cc1cncc(Oc2ccc(CN)cc2)n1` | 1.573 | 14.56 | -10.91 | 10.42 |
| 46 | `Cn1nc(Cn2ccnc2)c2c1CN(c1nccs1)C2.O=C(O)C(F)(F)F.O=C(O)C(F)(F)F` | - | -31.73 & -2.687 | - | - |
| 47 | `CS(=O)(=O)c1cccc(S(=O)(=O)NC(=O)c2cscn2)c1` | -2.697 | 12.2 | 6.549 | 9.639 |
| 48 | `O=C(NCC1CCOC1)Nc1ccc(Oc2ccc(F)cc2)nc1` (centres unmarked) | 10.03 | -13.15 | -29.2 | 2.053 |
| 49 | `CC1CCc2n[nH]c(C(=O)NCCCc3ccco3)c2C1` (centres unmarked) | -0.7843 | 12.09 | -17.74 | 3.802 |
| 50 | `CN(c1ncccc1C#N)C1CCN(CCc2ccncc2)CC1` | 1.514 | -13.48 | -6.51 | 5.732 |
| 51 | `Cc1cc(=O)n(CCNS(=O)(=O)c2ccc(F)c(Cl)c2)cn1` | 0.9488 | -20.06 | -12.09 | 10 |
| 52 | `Cc1ccc(F)c2c1CCCN2CC(=O)NC1CCS(=O)(=O)C1` (centres unmarked) | 3.331 | 15.94 | -0.6845 | 8.04 |
| 53 | `CC1CCN(CCNC(=O)c2sccc2C2CC2)CC1` | 1.34 | -0.2394 | -24.11 | 6.878 |
| 54 | `Cc1noc(C)c1-c1n[nH]c2c1CN(S(=O)(=O)c1ccsc1)CC2` | -1.396 | -45 | -9.492 | 4.762 |
| 55 | `Cc1ccc(CN2CCCC(c3nn(C)c4nccnc34)C2)s1` (centres unmarked) | - | -15.22 | 115.1 | -1.064 |
| 56 | `COC(=O)N1CCc2ccccc2C1C(=O)NCc1ccncc1` (centres unmarked) | 0.076 | 23.19 & 0.1285 | - | 3.093 |
| 57 | `Cc1cnc(CN2CCCC2c2noc(C)n2)cn1` (centres unmarked) | 0.4223 | 7.452 | -2.544 | -1.887 |
| 58 | `Cc1cnc(N2CCN3C[C@H](OCc4cccc(C)n4)C[C@H]3C2)nc1` | 0.7551 | - | -28.23 | 5.063 |
| 59 | `[H][C@]12CC[C@]([H])(CN(c3ncccn3)C1)N(C(=O)c1cc(F)ccc1OC)C2` | - | -39.85 | - | - |
| 60 | `O=C(CC1CC1)N1CCC2(CC1)C(=O)NCCN2Cc1ccccc1` | 54.24 | -5.856 | -43.53 | 3.883 |
| 61 | `O=C(NCc1ccco1)Nc1cccc(S(=O)(=O)C(F)F)c1` | 0.6261 | 11.99 | -25.22 | 6.897 |
| 62 | `CC(C)c1noc(-c2ccc(N(C)C3CCOCC3)nc2)n1` | 6.101 | 7.158 | 10.99 | -2.89 |
| 63 | `Cn1cnc(-c2nc(C(=O)NCCN3CCCC3)c3ccccn23)c1` | -7.441 | 50.91 | 18.63 | 7.216 |
| 64 | `O=C(O)C(F)(F)F.O=C(O)C(F)(F)F.c1cncc(OCC2CN(Cc3ccsc3)Cc3nccn3C2)c1` (centres unmarked) | - | 18.94 | - | - |
| 65 | `O=C(O)C(F)(F)F.[H][C@]12CN(Cc3cccnc3)C(=O)[C@@]1([H])CN(S(=O)(=O)CC)C2` | - | -0.9917 | - | - |

8 of the entries, repeated:

Compound,MtTrpRS,Leishmania in macrophages,Pks13 thioesterase,TcHisRS
N#Cc1ccc(N2CCCC3(CCC(=O)N3CC3CC3)CC2)nc1.O=C(O)C(F)(F)F (centres unmarked),-,35.07,-,-
CCN(Cc1cccs1)C(=O)c1ccc(=O)n(C)c1,-1.348,-5.731,-15.97,6.897
c1cnnc(NCC2CN(CCN3CCCCC3)CCO2)c1 (centres unmarked),0.2398,26.04,-5.176,-0.7634
Cn1nc(Cn2ccnc2)c2c1CN(c1ncccn1)C2.O=C(O)C(F)(F)F,-,3.162 & -42.74,-,-
O=C(O)C(F)(F)F.O=C(O)C(F)(F)F.c1cncc(OCC2CN(Cc3ccsc3)Cc3nccn3C2)c1 (centres unmarked),-,18.94,-,-
CNC(=O)c1cccnc1NCc1ccc(Cn2cccn2)cc1,-15.87,-8.988,-4.539,8.642
Cc1cc(C(=O)N(C)C)nc(C2(C)CCCN2c2ccccc2)n1 (centres unmarked),-6.773,32.05,15.1,9.848
CN(Cc1n[nH]c2c1CCCC2)c1nc(C2CC2)nc2c1CCNCC2,-0.161,41.18,-13.2,0.8